Test results published in publication PMC12407064.

Target: T1, MycDTX3 (pRK5-3MycDTX3.WT, 1 to 347) (UniProt Q8N9I9)
T1 sequence: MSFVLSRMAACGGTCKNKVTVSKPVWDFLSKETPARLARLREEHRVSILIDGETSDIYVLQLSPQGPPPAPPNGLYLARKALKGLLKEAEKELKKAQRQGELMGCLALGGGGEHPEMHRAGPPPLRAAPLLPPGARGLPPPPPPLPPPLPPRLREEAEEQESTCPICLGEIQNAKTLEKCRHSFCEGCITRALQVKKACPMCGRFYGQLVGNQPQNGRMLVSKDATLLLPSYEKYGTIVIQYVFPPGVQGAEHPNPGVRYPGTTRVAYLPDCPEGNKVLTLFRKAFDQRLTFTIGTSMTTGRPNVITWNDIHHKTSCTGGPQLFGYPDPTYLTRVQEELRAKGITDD
Test: co-IP; anti-Myc beads, 2 hours at 4°C, lysates of transfected TNKS1/2 DKO HEK293T cells in TNE buffer; immunoblot

## FlagDi19-UIM (C-terminal Di19-UIM fragment of RNF166, pCMV3FlagDi19-UIM) (domain or fragment)
  binding: binds

These are yes or no findings as the source states them, for the method shown. In cells and extracts the contact can be indirect. Binding calls can cover weak binding; strength is not graded here. Sequences can lack the tags named with a protein.
